Results published in the supplement of paper PMC8728848.
The list shows a part of the results.

Tests used:
Test in all cases: glycan array binding signal (z-score within array); higher = stronger binding
Conditions in all cases: glycan notation: IUPAC condensed, linker removed
[1] = target: Neu5Ac(a2-6)Gal(b1-4)GlcNAc(b1-2)Man(a1-3)[Neu5Ac(a2-6)Gal(b1-4)GlcNAc(b1-2)Man(a1-6)]Man(b1-4)GlcNAc(b1-4)[Fuc(a1-6)]GlcNAc
How it was run: (§1)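 From the Consortium for Functional Glycomics database, 3228 arrays were curated, keeping only those whose protein sequence was available. Binding is given as a within-array Z-score averaged across arrays sharing a protein sequence and across linkers. Negative Z-scores can be read as non-binding.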

[2] = target: Neu5Ac(a2-6)Gal(b1-4)GlcNAc(b1-2)Man(a1-6)Man(b1-4)GlcNAc(b1-4)GlcNAc
How it was run: as §1

[3] = target: Neu5Ac(a2-6)Gal(b1-4)GlcNAc(b1-2)Man(a1-6)[Gal(b1-4)GlcNAc(b1-2)Man(a1-3)]Man(b1-4)GlcNAc(b1-4)GlcNAc
How it was run: as §1

[4] = target: Neu5Ac(a2-6)Gal(b1-4)GlcNAc(b1-2)Man(a1-6)[GlcNAc(b1-2)Man(a1-3)]Man(b1-4)GlcNAc(b1-4)GlcNAc
How it was run: as §1

[5] = target: Neu5Ac(a2-6)Gal(b1-4)GlcNAc(b1-2)Man(a1-6)[Man(a1-3)]Man(b1-4)GlcNAc(b1-4)GlcNAc
How it was run: as §1

[6] = target: Neu5Ac(a2-6)Gal(b1-4)GlcNAc(b1-2)[Neu5Ac(a2-6)Gal(b1-4)GlcNAc(b1-4)]Man(a1-3)[GlcNAc(b1-4)][Neu5Ac(a2-6)Gal(b1-4)GlcNAc(b1-2)[Neu5Ac(a2-6)Gal(b1-4)GlcNAc(b1-6)]Man(a1-6)]Man(b1-4)GlcNAc(b1-4)GlcNAc
How it was run: as §1

[7] = target: Neu5Ac(a2-6)Gal(b1-4)GlcNAc(b1-2)[Neu5Ac(a2-6)Gal(b1-4)GlcNAc(b1-4)]Man(a1-3)[GlcNAc(b1-4)][Neu5Ac(a2-6)Gal(b1-4)GlcNAc(b1-4)Man(a1-6)]Man(b1-4)GlcNAc(b1-4)GlcNAc
How it was run: as §1

[8] = target: Neu5Ac(a2-6)Gal(b1-4)GlcNAc(b1-2)[Neu5Ac(a2-6)Gal(b1-4)GlcNAc(b1-6)]Man(a1-6)[Neu5Ac(a2-6)Gal(b1-4)GlcNAc(b1-2)Man(a1-3)][GlcNAc(b1-4)]Man(b1-4)GlcNAc(b1-4)GlcNAc
How it was run: as §1

[9] = target: Neu5Ac(a2-6)Gal(b1-4)GlcNAc(b1-3)Gal(b1-3)GlcNAc
How it was run: as §1

[10] = target: Neu5Ac(a2-6)Gal(b1-4)GlcNAc(b1-3)Gal(b1-4)GlcNAc
How it was run: as §1

[11] = target: Neu5Ac(a2-6)Gal(b1-4)GlcNAc(b1-3)Gal(b1-4)GlcNAc(b1-2)Man(a1-3)[Neu5Ac(a2-6)Gal(b1-4)GlcNAc(b1-3)Gal(b1-4)GlcNAc(b1-2)Man(a1-6)]GalNAc
How it was run: as §1

[12] = target: Neu5Ac(a2-6)Gal(b1-4)GlcNAc(b1-3)Gal(b1-4)GlcNAc(b1-3)Gal(b1-4)GlcNAc
How it was run: as §1

[13] = target: Neu5Ac(a2-6)Gal(b1-4)GlcNAc(b1-3)Gal(b1-4)GlcNAc(b1-3)Gal(b1-4)GlcNAc(b1-2)Man(a1-3)[Neu5Ac(a2-6)Gal(b1-4)GlcNAc(b1-3)Gal(b1-4)GlcNAc(b1-3)Gal(b1-4)GlcNAc(b1-2)Man(a1-6)]GalNAc
How it was run: as §1

[14] = target: Neu5Ac(a2-6)Gal(b1-4)GlcNAc(b1-3)Gal(b1-4)GlcNAc(b1-3)GalNAc
How it was run: as §1

[15] = target: Neu5Ac(a2-6)Gal(b1-4)GlcNAc(b1-3)Gal(b1-4)GlcNAc(b1-3)[Neu5Ac(a2-6)Gal(b1-4)GlcNAc(b1-3)Gal(b1-4)GlcNAc(b1-6)]GalNAc
How it was run: as §1

[16] = target: Neu5Ac(a2-6)Gal(b1-4)GlcNAc(b1-3)Gal(b1-4)GlcNAc(b1-6)[Gal(b1-3)]GalNAc
How it was run: as §1

[17] = target: Neu5Ac(a2-6)Gal(b1-4)GlcNAc(b1-3)Gal(b1-4)[Fuc(a1-3)]GlcNAc(b1-3)Gal(b1-4)[Fuc(a1-3)]GlcNAc
How it was run: as §1

[18] = target: Neu5Ac(a2-6)Gal(b1-4)GlcNAc(b1-3)GalNAc
How it was run: as §1

[19] = target: Neu5Ac(a2-6)Gal(b1-4)GlcNAc(b1-3)[Neu5Ac(a2-6)Gal(b1-4)GlcNAc(b1-6)]GalNAc
How it was run: as §1

[20] = target: Neu5Ac(a2-6)Gal(b1-4)GlcNAc(b1-6)GalNAc
How it was run: as §1

[21] = target: Neu5Ac(a2-6)Gal(b1-4)GlcNAc(b1-6)[Gal(b1-3)GlcNAc(b1-3)]Gal(b1-4)Glc
How it was run: as §1

[22] = target: Neu5Ac(a2-6)Gal(b1-4)GlcNAc(b1-6)[Gal(b1-3)]GalNAc
How it was run: as §1

[23] = target: Neu5Ac(a2-6)Gal(b1-4)GlcNAc6S
How it was run: as §1

Neu5Ac(a2-6)GalNAc = target: Neu5Ac(a2-6)GalNAc
How it was run: as §1

[24] = target: Neu5Ac(a2-6)GalNAc(b1-4)GlcNAc
How it was run: as §1

[25] = target: Neu5Ac(a2-6)GalNAc(b1-4)GlcNAc6S
How it was run: as §1

[26] = target: Neu5Ac(a2-6)GlcNAc(b1-4)GlcNAc
How it was run: as §1

[27] = target: Neu5Ac(a2-6)GlcNAc(b1-4)GlcNAc(b1-4)GlcNAc
How it was run: as §1

Neu5Ac(a2-8)Neu5Ac = target: Neu5Ac(a2-8)Neu5Ac
How it was run: as §1

B1: LlpA1 (Pseudomonas fluorescens), Q4KHC3 (protein)
chain: MGSSHHHHHHSSGLVPRGSHMAWIRYDFTDNGSSVLPARYYMAPNQYLQSPNKRFKLLFQADGNLALYDGAQLAWVADQNTPFTNVSKGNKKDPMMVFMNYGFVLDDPLRGRIWSTTPSDPTMGSREDASLRAFTQVQDDGNIVTVDTIPHWYAPNGRVFTPAVGAAMIIGGTTELVPGQFYSAGEHSLVFQGDGNLVVYGPNSSVIWATYTQNKGGVRCVMQEDGNLVIYAANNGVVWQSGTGGHPGATIRLQANGSFTIVTERPVWARFGYTPTIKPPRVFYPDHKWKTGSYTWNNVF
[1]
  glycan array binding signal (z-score): 0.195
[2]
  glycan array binding signal (z-score): -0.485
[3]
  glycan array binding signal (z-score): 0.215
[4]
  glycan array binding signal (z-score): -0.426
[5]
  glycan array binding signal (z-score): -0.409
[6]
  glycan array binding signal (z-score): -0.098
[7]
  glycan array binding signal (z-score): 0.31
[8]
  glycan array binding signal (z-score): -0.421
[9]
  glycan array binding signal (z-score): -0.18
[10]
  glycan array binding signal (z-score): -0.142
[11]
  glycan array binding signal (z-score): 0.362
[12]
  glycan array binding signal (z-score): -0.579
[13]
  glycan array binding signal (z-score): 1.28
[14]
  glycan array binding signal (z-score): -0.115
[15]
  glycan array binding signal (z-score): 1.23
[16]
  glycan array binding signal (z-score): -0.066
[17]
  glycan array binding signal (z-score): 0.034
[18]
  glycan array binding signal (z-score): -0.041
[19]
  glycan array binding signal (z-score): -0.053
[20]
  glycan array binding signal (z-score): 0.332
[21]
  glycan array binding signal (z-score): 0.075
[22]
  glycan array binding signal (z-score): 0.228
[23]
  glycan array binding signal (z-score): -0.671
Neu5Ac(a2-6)GalNAc
  glycan array binding signal (z-score): -0.628
[24]
  glycan array binding signal (z-score): -0.614
[25]
  glycan array binding signal (z-score): -0.028
[26]
  glycan array binding signal (z-score): -0.611
[27]
  glycan array binding signal (z-score): -0.526
Neu5Ac(a2-8)Neu5Ac
  glycan array binding signal (z-score): -0.263
